Experimental findings from publication doi:10.1101/2024.06.26.600780 are described below.

In assay [1] the target is Nb776 (llama). Nature of the assay: pull-down.
Assay [2] addresses Nb777 (llama). Briefly: pull-down.

No constants are given. Whether binding was seen depends on the method and setting. Binding seen in cells or lysates may run through a third protein. Some binding calls cover weakened binding; strength is not graded here. Tags and fused reporters may be left off the sequences shown.

B1: EGFP-fused mouse brain membrane protein IgSF8 (protein, UniProt Q8R366 26-611)
chain: RQVHVPRGPLYRVAGTAVSISCNVSDYEGPAQQDFEWFMYRPEAPATSLGIVSTKDSQFSYAVFGPRVASGDLQVQRLKGDSVVLKIARLQAQDSGFYECYTPSTDTQYLGNYSAKVELRVLPDELQVSAAPPGPRGRQAATSPSRLTVHEGQELALGCLAQTKTKKHTHLSVSFGRAIPEAPVGRATLQEVVGLRSDMAVEAGAPYAERLASGELRLSKEGTDRYRMVVGGAQAGDSGTYHCTAAEWIQDPDGSWVQVAEKRAVLAHVDVQTLSSQLAVTVGPGERRIGPGEPLELLCNVSGALPPPGRHAAYSVGWEMAPAGAPGPGRLVAQLDTEGIGSLGPGYEDRHIAMEKVASRTYRLRLEAARPADAGTYRCLAKAYVRGSGTRLREAASARSRPLPVHVREEGVVLEAVAWLAGGTVYRGETASLLCNISVRGGPPGLRLAASWWVERPEEGELSSGPAQLVGGVGQDGVAELGVRPGGGPVSVELVGPRSHRLRLHGLGPEDEGIYHCAPSAWVQHADYSWYQAGSARSGPVTVYPYTHAVDTLFVPLLVGTGVALVTGASVLATITCCFMKRMRKR
For the molecule B1, the binding result in assay [1] and in assay [2] was “binds” each time.
